# Results: the supplement of paper PMC8728848
# The list shows a part of the results.
# B1: LysMD3 (Homo sapiens), Q7Z3D4 (protein)
# chain: MAGRHQNRSFPLPGVQSSGQVHAFGNCSDSDILEEDAEVYELRSRGKEKVRRSTSRDRLDDIIVLTKDIQEGDTLNAIALQYCCTVADIKRVNNLISDQDFFALRSIKIPVKKFSSLTETLCPPKGRQTSRHSSVQYSSEQQEILPANDSLAYSDSAGSFLKEVDRDIEQIVKCTDNKRENLNEVVSALTAQQMRFEPDNKNTQRKDPYYGADWGIG
# Columns and labels:
# Experiment in all cases: glycan array binding signal (z-score within array); higher = stronger binding
# Conditions in all cases: glycan notation: IUPAC condensed, linker removed
# [1] = target: GlcNAc(b1-2)[GlcNAc(b1-4)]Man(a1-3)[GlcNAc(b1-4)][GlcNAc(b1-2)Man(a1-6)]Man(b1-4)GlcNAc(b1-4)GlcNAc
# How it was run: (§1)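 From the Consortium for Functional Glycomics database, 3228 arrays were curated, keeping only those whose protein sequence was available. Binding is given as a within-array Z-score averaged across arrays sharing a protein sequence and across linkers. Negative Z-scores can be read as non-binding.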
# [2] = target: GlcNAc(b1-2)[GlcNAc(b1-4)]Man(a1-3)[GlcNAc(b1-4)][GlcNAc(b1-2)[GlcNAc(b1-6)]Man(a1-6)]Man(b1-4)GlcNAc(b1-4)GlcNAc
# How it was run: as §1
# [3] = target: GlcNAc(b1-2)[GlcNAc(b1-4)]Man(a1-3)[GlcNAc(b1-4)][GlcNAc(b1-2)[GlcNAc(b1-6)]Man(a1-6)]Man(b1-4)GlcNAc(b1-4)[Fuc(a1-6)]GlcNAc
# How it was run: as §1
# [4] = target: GlcNAc(b1-2)[GlcNAc(b1-6)]Man(a1-6)[GlcNAc(b1-2)Man(a1-3)]Man(b1-4)GlcNAc(b1-4)GlcNAc
# How it was run: as §1
# [5] = target: GlcNAc(b1-2)[GlcNAc(b1-6)]Man(a1-6)[GlcNAc(b1-2)Man(a1-3)]Man(b1-4)GlcNAc(b1-4)[Fuc(a1-6)]GlcNAc
# How it was run: as §1
# [6] = target: GlcNAc(b1-2)[GlcNAc(b1-6)]Man(a1-6)[GlcNAc(b1-4)][GlcNAc(b1-2)Man(a1-3)]Man(b1-4)GlcNAc(b1-4)GlcNAc
# How it was run: as §1
# [7] = target: GlcNAc(b1-3)Fuc
# How it was run: as §1
# [8] = target: GlcNAc(b1-3)Gal
# How it was run: as §1
# [9] = target: GlcNAc(b1-3)Gal(b1-3)GalNAc
# How it was run: as §1
# [10] = target: GlcNAc(b1-3)Gal(b1-4)Glc
# How it was run: as §1
# [11] = target: GlcNAc(b1-3)Gal(b1-4)GlcNAc
# How it was run: as §1
# [12] = target: GlcNAc(b1-3)Gal(b1-4)GlcNAc(b1-2)Man(a1-3)[GlcNAc(b1-3)Gal(b1-4)GlcNAc(b1-2)Man(a1-6)]Man(b1-4)GlcNAc(b1-4)GlcNAc
# How it was run: as §1
# [13] = target: GlcNAc(b1-3)Gal(b1-4)GlcNAc(b1-2)Man(a1-3)[GlcNAc(b1-3)Gal(b1-4)GlcNAc(b1-2)Man(a1-6)]Man(b1-4)GlcNAc(b1-4)[Fuc(a1-6)]GlcNAc
# How it was run: as §1
# [14] = target: GlcNAc(b1-3)Gal(b1-4)GlcNAc(b1-2)[GlcNAc(b1-3)Gal(b1-4)GlcNAc(b1-6)]Man(a1-6)[GlcNAc(b1-3)Gal(b1-4)GlcNAc(b1-2)Man(a1-3)]Man(b1-4)GlcNAc(b1-4)GlcNAc
# How it was run: as §1
# [15] = target: GlcNAc(b1-3)Gal(b1-4)GlcNAc(b1-3)Gal(b1-4)GlcNAc
# How it was run: as §1
# [16] = target: GlcNAc(b1-3)Gal(b1-4)GlcNAc(b1-3)Gal(b1-4)GlcNAc(b1-2)Man(a1-3)[GlcNAc(b1-3)Gal(b1-4)GlcNAc(b1-3)Gal(b1-4)GlcNAc(b1-2)Man(a1-6)]Man(b1-4)GlcNAc(b1-4)GlcNAc
# How it was run: as §1
# [17] = target: GlcNAc(b1-3)Gal(b1-4)GlcNAc(b1-3)Gal(b1-4)GlcNAc(b1-2)Man(a1-3)[GlcNAc(b1-3)Gal(b1-4)GlcNAc(b1-3)Gal(b1-4)GlcNAc(b1-2)Man(a1-6)]Man(b1-4)GlcNAc(b1-4)[Fuc(a1-6)]GlcNAc
# How it was run: as §1
# [18] = target: GlcNAc(b1-3)Gal(b1-4)GlcNAc(b1-3)Gal(b1-4)GlcNAc(b1-2)[GlcNAc(b1-3)Gal(b1-4)GlcNAc(b1-3)Gal(b1-4)GlcNAc(b1-6)]Man(a1-6)[GlcNAc(b1-3)Gal(b1-4)GlcNAc(b1-3)Gal(b1-4)GlcNAc(b1-2)Man(a1-3)]Man(b1-4)GlcNAc(b1-4)[Fuc(a1-6)]GlcNAc
# How it was run: as §1
# [19] = target: GlcNAc(b1-3)Gal(b1-4)GlcNAc(b1-3)Gal(b1-4)GlcNAc(b1-3)Gal(b1-4)GlcNAc(b1-2)Man(a1-3)[GlcNAc(b1-3)Gal(b1-4)GlcNAc(b1-3)Gal(b1-4)GlcNAc(b1-3)Gal(b1-4)GlcNAc(b1-2)Man(a1-6)]Man(b1-4)GlcNAc(b1-4)GlcNAc
# How it was run: as §1
# [20] = target: GlcNAc(b1-3)Gal(b1-4)GlcNAc(b1-3)Gal(b1-4)GlcNAc(b1-3)Gal(b1-4)GlcNAc(b1-2)Man(a1-3)[GlcNAc(b1-3)Gal(b1-4)GlcNAc(b1-3)Gal(b1-4)GlcNAc(b1-3)Gal(b1-4)GlcNAc(b1-2)Man(a1-6)]Man(b1-4)GlcNAc(b1-4)[Fuc(a1-6)]GlcNAc
# How it was run: as §1
# [21] = target: GlcNAc(b1-3)Gal(b1-4)GlcNAc(b1-3)Gal(b1-4)GlcNAc(b1-3)Gal(b1-4)GlcNAc(b1-2)[GlcNAc(b1-3)Gal(b1-4)GlcNAc(b1-3)Gal(b1-4)GlcNAc(b1-3)Gal(b1-4)GlcNAc(b1-6)]Man(a1-6)[GlcNAc(b1-3)Gal(b1-4)GlcNAc(b1-3)Gal(b1-4)GlcNAc(b1-3)Gal(b1-4)GlcNAc(b1-2)Man(a1-3)]Man(b1-4)GlcNAc(b1-4)[Fuc(a1-6)]GlcNAc
# How it was run: as §1
# [22] = target: GlcNAc(b1-3)Gal(b1-4)GlcNAc(b1-3)Gal(b1-4)GlcNAc(b1-3)Gal(b1-4)GlcNAc(b1-3)Gal(b1-4)GlcNAc(b1-2)Man(a1-3)[GlcNAc(b1-3)Gal(b1-4)GlcNAc(b1-3)Gal(b1-4)GlcNAc(b1-3)Gal(b1-4)GlcNAc(b1-3)Gal(b1-4)GlcNAc(b1-2)Man(a1-6)]Man(b1-4)GlcNAc(b1-4)GlcNAc
# How it was run: as §1
# [23] = target: GlcNAc(b1-3)Gal(b1-4)GlcNAc(b1-3)Gal(b1-4)GlcNAc(b1-3)Gal(b1-4)GlcNAc(b1-3)Gal(b1-4)GlcNAc(b1-2)Man(a1-3)[GlcNAc(b1-3)Gal(b1-4)GlcNAc(b1-3)Gal(b1-4)GlcNAc(b1-3)Gal(b1-4)GlcNAc(b1-3)Gal(b1-4)GlcNAc(b1-2)Man(a1-6)]Man(b1-4)GlcNAc(b1-4)[Fuc(a1-6)]GlcNAc
# How it was run: as §1
binder,measurement,setting,value
B1,glycan array binding signal (z-score),[1],0.291
same,glycan array binding signal (z-score),[2],0.661
same,glycan array binding signal (z-score),[3],-0.54
same,glycan array binding signal (z-score),[4],0.369
same,glycan array binding signal (z-score),[5],1.6
same,glycan array binding signal (z-score),[6],0.277
same,glycan array binding signal (z-score),[7],-0.685
same,glycan array binding signal (z-score),[8],-0.379
same,glycan array binding signal (z-score),[9],1.5
same,glycan array binding signal (z-score),[10],0.983
same,glycan array binding signal (z-score),[11],-0.096
same,glycan array binding signal (z-score),[12],1.01
same,glycan array binding signal (z-score),[13],1.83
same,glycan array binding signal (z-score),[14],0.716
same,glycan array binding signal (z-score),[15],0.418
same,glycan array binding signal (z-score),[16],1.26
same,glycan array binding signal (z-score),[17],1.8
same,glycan array binding signal (z-score),[18],1.87
same,glycan array binding signal (z-score),[19],-0.16
same,glycan array binding signal (z-score),[20],1.68
same,glycan array binding signal (z-score),[21],2.41
same,glycan array binding signal (z-score),[22],-0.009
same,glycan array binding signal (z-score),[23],-1.08

# An excerpt of these results, bar-delimited.
binder | measurement | setting | value
B1 | glycan array binding signal (z-score) | [10] | 0.983
same | glycan array binding signal (z-score) | [12] | 1.01
